Experimental data reported in US20050031717A1, “Salt taste modification” (priority 2003, published 2005).

Tested on: amiloride-insensitive salt taste receptor
Test: Rat chorda tympani (CT) taste nerve recordings
Type: in vivo
Conditions: 100 mM NaCl+5 μM Bz
Excerpt: Chorda tympani nerve recordings. Recordings from the chorda tympani (CT) taste nerves of anesthetized rats were made. Recordings were made with various salt stimuli and with the taste receptive field under current or voltage clamp in order to observe the effect, if any, of modulating the driving force for ions through putative […] apical membrane ion channels involved in salt taste reception.

## CCCCCCCCCCCCCCCC[n+]1ccccc1 [CPC, cetylpyridinium chloride]
  concentration at which the Bz-insensitive NaCl chorda tympani response decreased to rinse level: 2 mM
  concentration of maximum enhancement of the Bz-insensitive NaCl chorda tympani response: around 250 μM
